Measurements published in the supplement of paper PMC6078165.
The reference is the same well before dosing, and untreated signal decays as well.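 Labels refer to human fibroblasts, largely primary: uterine (C12385, HUF), lung (H6013), bone (Hs27A), adrenal (HADF), skin (WS1), plus mammary HMF and breast cancer-associated Hs343T. Cancer lines are basal-like or mesenchymal-like triple-negative breast cancer. The paper counts as hits responses shifting over 3x the replicate standard deviation. The tissue of the other fibroblasts is not given here.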 Numbered stars: 1 amine (or outer) side, 2 acyl side, 3 side chain; on linkers, the order of the positions; unused ones are H or OH. Bridge positions count the residues as written; N and C are the ends. Square brackets hold non-standard residues; d marks the D form. Peptide text beside a SMILES is read from it. I, II: the chains in the order shown. Actinocin(9to1) = Cc1c2oc3c(C)ccc(C(=O)[*:1])c3nc-2c(C(=O)[*:2])c(N)c1=O; NMeV = CN[C@H](C(=O)O)C(C)C; Sar = CNCC(=O)O

Test system: MDAMB436
Assay: relative JC-1 red fluorescence (viability) vs pre-drug, coculture with fibroblast (fraction); higher = more viable cancer cells
Conditions: 100 µM
Procedure: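 JC-1 labelled TNBC cells cocultured 1:1 (1,500 cells each) with CellTrace Violet stained primary or stromal fibroblasts in 384-well plates in FluoroBrite medium, treated with one of 42 anticancer drugs at 0.1, 1, 10 or 100 uM. JC-1 red fluorescence (mitochondrial integrity in cancer cells only) was read by plate reader every 8 h for 72 h. Values are normalised to each well's pre-drug value. The stock of one drug was tenfold lower, so its dose labels may be too high.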

Cc1c2oc3c(C)ccc(C(=O)N[C@@H]4C(=O)N[C@H](C(C)C)C(=O)N5CCC[C@H]5C(=O)N(C)CC(=O)N(C)[C@@H](C(C)C)C(=O)O[C@@H]4C)c3nc-2c(C(=O)N[C@@H]2C(=O)N[C@H](C(C)C)C(=O)N3CCC[C@H]3C(=O)N(C)CC(=O)N(C)[C@@H](C(C)C)C(=O)O[C@@H]2C)c(N)c1=O [Dactinomycin] (I: T[dV]P[Sar][NMeV] / II: T[dV]P[Sar][NMeV]; ester I:1-I:C, II:1-II:C; linker I:N-II:N via Actinocin(9to1))
relative JC-1 red fluorescence
Conditions | 8 h | 16 h | 24 h | 32 h | 40 h | 48 h | 56 h | 64 h | 72 h
coculture fibroblast: C12385 | 0.73 | 0.689 | 0.675 | 0.611 | 0.5905 | 0.58759 | 0.577 | 0.56728 | 0.5694
coculture fibroblast: H6013 | 0.807 | 0.778 | 0.779 | 0.776 | 0.766 | 0.801 | 0.764 | 0.756 | 0.711
coculture fibroblast: H6019 | 0.7257 | 0.689 | 0.7046 | 0.66455 | 0.6636 | 0.6579 | 0.633 | 0.62787 | 0.6228
coculture fibroblast: H6076 | 0.708 | 0.674 | 0.704 | 0.668 | 0.651 | 0.635 | 0.644 | 0.634 | 0.621
coculture fibroblast: H6231 | 0.729 | 0.67 | 0.724 | 0.645 | 0.611 | 0.583 | 0.579 | 0.555 | 0.545
coculture fibroblast: HADF | 0.734 | 0.72 | 0.708 | 0.69 | 0.674 | 0.706 | 0.646 | 0.649 | 0.61
coculture fibroblast: HCFa | 0.8 | 0.793 | 0.7879 | 0.791 | 0.7758 | 0.81 | 0.759 | 0.766 | 0.725
coculture fibroblast: HCPF | 0.728 | 0.708 | 0.722 | 0.655 | 0.636 | 0.605 | 0.583 | 0.574 | 0.556
coculture fibroblast: HHSteC | 0.781 | 0.7782 | 0.768 | 0.769 | 0.773 | 0.805 | 0.749 | 0.734 | 0.694
coculture fibroblast: HMF | 0.753 | 0.727 | 0.745 | 0.715 | 0.718 | 0.697 | 0.692 | 0.673 | 0.666
coculture fibroblast: HPFa | 0.872 | 0.872 | 0.877 | 0.859 | 0.883 | 0.919 | 0.867 | 0.87 | 0.835
coculture fibroblast: HUF | 0.796 | 0.7487 | 0.744 | 0.689 | 0.651 | 0.638 | 0.614 | 0.609 | 0.60841
coculture fibroblast: Hs5 | 0.753 | 0.729 | 0.73 | 0.677 | 0.667 | 0.628 | 0.636 | 0.605 | 0.605
coculture fibroblast: Hs27A | 0.7558 | 0.727 | 0.72 | 0.719 | 0.709 | 0.781 | 0.693 | 0.686 | 0.622
coculture fibroblast: Hs343T | 0.7954 | 0.76 | 0.738 | 0.6974 | 0.687 | 0.65 | 0.644 | 0.629 | 0.624
coculture fibroblast: WS1 | 0.72 | 0.676 | 0.67 | 0.605 | 0.584 | 0.572 | 0.564 | 0.551 | 0.545
